Assay results taken from PubChem BioAssay AID588590 (National Center for Advancing Translational Sciences (NCATS), 2011).
In all, about 390,000 compounds went through this assay and about 4,000 (1%) were called active. Inconclusive means that the source gave no clear call. Such entries were picked first, then a sample of the others. The call rests on the fitted dose curve; in most records, active means well fitted inhibition curve with a large enough effect; inconclusive means small, poorly fitted or top-dose-only effect, or another doubt; inactive means no such curve, though single readings can be large or run the other way. A potency beside an inconclusive call is a rough fit, not a confirmed value.

Protein sequences, listed by entry. Tags and fused reporters are not part of them. Lines headed by an entry give the natural chain unless they say otherwise; changes in a name come on top.
UniProt Q9UNA4: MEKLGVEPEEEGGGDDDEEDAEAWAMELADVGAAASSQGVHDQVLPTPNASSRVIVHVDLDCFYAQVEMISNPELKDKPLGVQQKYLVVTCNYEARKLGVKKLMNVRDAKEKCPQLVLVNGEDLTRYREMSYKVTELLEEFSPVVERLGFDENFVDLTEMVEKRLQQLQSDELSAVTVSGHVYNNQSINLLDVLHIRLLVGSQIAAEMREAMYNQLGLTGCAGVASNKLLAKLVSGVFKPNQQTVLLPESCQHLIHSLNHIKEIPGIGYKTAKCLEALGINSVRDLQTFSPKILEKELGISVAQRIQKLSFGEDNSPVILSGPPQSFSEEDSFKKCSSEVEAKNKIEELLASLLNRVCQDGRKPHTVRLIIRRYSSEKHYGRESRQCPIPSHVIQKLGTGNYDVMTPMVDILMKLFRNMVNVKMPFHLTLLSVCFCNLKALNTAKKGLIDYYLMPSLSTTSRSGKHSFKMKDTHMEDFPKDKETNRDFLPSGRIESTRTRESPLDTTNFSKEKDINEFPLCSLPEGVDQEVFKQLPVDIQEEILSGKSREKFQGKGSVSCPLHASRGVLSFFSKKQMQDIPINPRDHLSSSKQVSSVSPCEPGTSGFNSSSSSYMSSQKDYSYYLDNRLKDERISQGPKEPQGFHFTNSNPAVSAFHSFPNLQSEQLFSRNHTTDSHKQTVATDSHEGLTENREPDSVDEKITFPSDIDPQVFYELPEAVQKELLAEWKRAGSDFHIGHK

biological target: DNA polymerase iota (Homo sapiens) (UniProt Q9UNA4); experiment: qHTS for Inhibitors of Polymerase Iota; conditions: Pol iota fluorescent replication assay, 10 min; series mostly up to 115 µM
Method in brief: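 Pol iota at 10 nM preincubated 15 min with compounds at room temperature; reaction started with fluorescent substrate, 50 nM final. Fluorescence read kinetically at 0 and 10 min; buffer-only wells as negative control.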
Potency means the concentration at half of the fitted maximal effect.

SMILES | Potency
NNC(=O)COc1ccc(-c2nccc(-c3ccc(F)cc3)n2)cc1 | inconclusive: 79.4 µM [inhibitor, partial curve, poor fit]
Nc1nc(SCC(=O)Nc2ccc(OCc3ccccc3)cc2)n[nH]1 | inconclusive: 79.4 µM [inhibitor, single point]
Cc1cc(NC(=O)CSc2nnc(COc3cccc(C)c3C)n2Cc2ccco2)no1 | inconclusive: 79.4 µM [inhibitor, partial curve, poor fit]
Cn1c(=O)c2c(nc(NCc3ccco3)n2CC(O)COc2ccccc2)n(C)c1=O (stereo not drawn) | inactive
CCOc1ccc(C(=O)CC(Sc2ccc(C)cc2)C(=O)O)cc1 (stereo not drawn) | inconclusive: 8.91 µM [inhibitor, full curve, poor fit]
Cc1ccc(C(c2c(O)nc3n(c2=O)CCS3)c2c(O)nc3n(c2=O)CCS3)cc1 | inconclusive: 31.6 µM [inhibitor, single point]
Cc1cc(-c2ccc(Br)s2)nc(-n2cccc2)n1 | inconclusive: 5.01 µM [inhibitor, full curve, poor fit]
CCCOC(=O)N1CCN(/[N+]([O-])=N/Oc2ccc([N+](=O)[O-])cc2[N+](=O)[O-])CC1 | inconclusive: 14.1 µM [inhibitor, partial curve]
O=c1c(CN2CCN(Cc3ccccc3)CC2)coc2ccc(Cl)cc12 | inconclusive: 12.6 µM [inhibitor, full curve, poor fit]
O=C(NC(Cc1ccc(O)cc1)C(=O)O)/C(=C/c1ccccc1)NC(=O)c1ccccc1 (stereo not drawn) | inconclusive: 112 µM [inhibitor, partial curve, poor fit]
Cc1c(C)n(Cc2ccccc2)c2ccc(C(=O)O)cc12 | inconclusive: 89.1 µM [inhibitor, single point]
Cc1ccc(N/C=C2/Sc3ccccc3NC2=O)cc1 | inactive
Cc1oc(-c2cccs2)nc1CNC[C@H]1O[C@@H](n2cnc3c(N)ncnc32)[C@H](O)[C@@H]1O | inactive
O=C(c1cc(-c2ccco2)nc2ccccc12)N1CCN(Cc2ccccc2)CC1 | inconclusive: 56.2 µM [inhibitor, partial curve, poor fit]
Cc1cccc(N2C(=O)/C(=C/c3cccnc3)SC2=S)c1 | inactive
O=C(Nc1ccc(Br)cn1)c1ccc2nccnc2c1 | inconclusive: 28.2 µM [inhibitor, single point]
COc1ccc(N2CCN(C3CCCN(Cc4ccc(F)cc4Cl)C3)CC2)cc1 (stereo not drawn) | inactive
O=C(COc1ccccc1Cl)Nc1ccc(C(=O)O)cc1NC(=O)COc1ccccc1Cl | inconclusive: 0.891 µM [inhibitor, full curve, poor fit]
CCOC(=O)c1ccc(NC(=O)COC(=O)Cc2csc(-c3ccccc3)n2)cc1 | inconclusive: 79.4 µM [inhibitor, single point]
Cc1cccc(/C=N\NC(=O)c2csnn2)c1 | inconclusive: 11.2 µM [inhibitor, full curve, poor fit]
Cc1cccc(NC(=O)C2CCCN(S(=O)(=O)c3ccc4[nH]c(=O)ccc4c3)C2)n1 (stereo not drawn) | inconclusive: 89.1 µM [inhibitor, single point]

SMILES | Potency
CCCN1CNc2c(c(=O)[nH]c(=S)n2CCc2ccc(Cl)cc2Cl)C1 | inactive
CN1CCN(NS(=O)(=O)c2ccc(Cl)s2)CC1 | inconclusive: 39.8 µM [inhibitor, partial curve, poor fit]
CCOC(=O)c1sc(NC(=O)c2ccc3nc[nH]c3c2)nc1C | inconclusive: 25.1 µM [inhibitor, full curve]
Cc1ccccc1S(=O)(=O)N1[C@@H](c2ccc(Cl)cc2)C(C(=O)O)=CC[C@H]1c1ccc(Cl)cc1 | inconclusive: 10 µM [inhibitor, partial curve, poor fit]
CCOc1ccccc1C(=O)Nc1ccc(S(=O)(=O)N2CCCCC2c2cccnc2)cc1 (stereo not drawn) | inconclusive: 50.1 µM [inhibitor, partial curve, poor fit]
Cc1ccccc1OCC(=O)NNC(=O)CCN1C(=O)c2ccccc2C1=O | inactive
Cc1nc(SCC(=O)c2ccccc2)c(C#N)c(-c2ccco2)c1C(=O)NCc1ccco1 | inconclusive: 15.8 µM [inhibitor, partial curve, poor fit]
COC(=O)c1ccc(-n2c(C)cc(-c3csc(NC(=O)c4ccc(S(=O)(=O)N(C)C)cc4)n3)c2C)cc1 | inconclusive: 39.8 µM [inhibitor, partial curve, poor fit]
CC(OC(=O)C1CCN(S(=O)(=O)c2ccc(C(C)(C)C)cc2)CC1)C(=O)N(C)C1CCCCC1 (stereo not drawn) | inconclusive: 12.6 µM [inhibitor, partial curve]
COc1cc(C)ccc1OCCSc1nnc(-c2ccc(C)cc2)o1 | inactive
CCCN(CCC)CCCNS(=O)(=O)c1ccc2c(c1)oc(=O)n2C | inconclusive: 112 µM [inhibitor, partial curve, poor fit]
O=C(NCc1ccco1)c1ccc(S(=O)(=O)c2cccc(S(=O)(=O)N3CCOCC3)c2)cc1 | inconclusive: 28.2 µM [inhibitor, partial curve]
CN(N=O)c1ccc2c(c1)Cc1ccccc1-2 | inactive
COc1cc(/C=C/C(=O)c2ccc3c(c2)OCCO3)cc(Br)c1OCC(=O)N(C)C | inconclusive: 20 µM [inhibitor, full curve, poor fit]
O=c1cc(COc2ncnc3c(Cl)cc(Cl)cc23)nc2sccn12 | inconclusive: 1.58 µM [inhibitor, full curve, poor fit]
O=C(c1ccc(F)cc1F)N1CCCC(c2nc(-c3cccs3)no2)C1 (stereo not drawn) | inconclusive: 89.1 µM [inhibitor, single point]
O=C1Cc2ccccc2C(=O)N1CCc1ccccc1 | inconclusive: 17.8 µM [inhibitor, full curve, poor fit]
Nc1nncn1C(=O)CCCN1C(=O)c2ccccc2C1=O | inconclusive: 31.6 µM [inhibitor, partial curve, poor fit]
CC(C)(C)c1ccc(C(=O)n2cnc3ccccc32)cc1 | inconclusive: 31.6 µM [inhibitor, single point]
COc1cc(/C=N/NC(=O)c2ccc3c(c2)OCCO3)cc(Cl)c1O | inconclusive: 3.98 µM [inhibitor, partial curve, poor fit]
CCN(CC)S(=O)(=O)c1cc(C(=O)O)ccc1Cl | inactive

As entered above.
Value of CCOC(=O)c1sc(NC(=O)c2ccc3nc[nH]c3c2)nc1C under Potency: inconclusive: 25.1 µM [inhibitor, full curve]
Value of O=C(c1cc(-c2ccco2)nc2ccccc12)N1CCN(Cc2ccccc2)CC1 under Potency: inconclusive: 56.2 µM [inhibitor, partial curve, poor fit]
Value of NNC(=O)COc1ccc(-c2nccc(-c3ccc(F)cc3)n2)cc1 under Potency: inconclusive: 79.4 µM [inhibitor, partial curve, poor fit]
Value of O=C(c1ccc(F)cc1F)N1CCCC(c2nc(-c3cccs3)no2)C1 (stereo not drawn) under Potency: inconclusive: 89.1 µM [inhibitor, single point]
Value of CCOc1ccccc1C(=O)Nc1ccc(S(=O)(=O)N2CCCCC2c2cccnc2)cc1 (stereo not drawn) under Potency: inconclusive: 50.1 µM [inhibitor, partial curve, poor fit]

Going on with the list.

SMILES | Potency
NC(=O)CC(NC(=O)Cc1cccc2ccccc12)c1ccc(NCc2ccccc2)c([N+](=O)[O-])c1 (stereo not drawn) | inconclusive: 63.1 µM [inhibitor, single point]
COc1cccc(/C=N/Nc2nc(Nc3ccccc3)nc(-n3nc(C)cc3C)n2)c1O | inactive
CC(=O)Nc1ccc(S(=O)(=O)NC(CC(=O)N(C)Cc2ccccc2)C(C)C)cc1 (stereo not drawn) | inactive
O=C(CSc1nc2c([nH]c3ccccc32)c(=O)n1-c1ccccc1)N1CCCC1 | inactive
CC1=NN(c2ccc(Cl)c(C(=O)O)c2)C(=O)/C1=C\c1ccc(-c2ccc(C(=O)O)cc2)o1 | inconclusive: 3.16 µM [inhibitor, full curve, poor fit]
Cc1cc(C(=O)COc2cccc([N+](=O)[O-])c2)c(C)n1C1CC1 | inconclusive: 63.1 µM [inhibitor, partial curve, poor fit]
COc1cccc(NS(=O)(=O)c2ccc3[nH]cc(C(=O)N(C)C4CCCCC4)c(=O)c3c2)c1 | inconclusive: 89.1 µM [inhibitor, single point]
CCCCc1nn2c(=O)cc(COC(=O)c3ccccc3NC(=O)c3ccccc3OC)nc2s1 | inconclusive: 31.6 µM [inhibitor, partial curve, poor fit]
CCCC(=O)N1c2nc(C(C)C)nn2C2(CCCCC2)[C@@H]2CCCC[C@@H]21 | inactive
COc1ccc2oc(=O)cc(CN3CCN(c4ccccc4F)CC3)c2c1 | inactive
Cc1ccc2c(c1)C1OCCC1C1N2C(=O)C2C(C(=O)O)C3C=CC21O3 (stereo not drawn) | inconclusive: 100 µM [inhibitor, partial curve, poor fit]
COC(=O)c1ccccc1NC(=O)/C=C/c1ccco1 | inconclusive: 89.1 µM [inhibitor, single point]
CCN(CC)CCCN=Cc1c(O)n(-c2cccc(C)c2)c(=O)c2ccccc12 | inactive
CCCN1CCCc2cc(CN(CCCN3CCOCC3)C(=O)Nc3ccc(CC)cc3)ccc21 | inactive
Cc1cc(NC(=O)c2cccc3ccccc23)cc(C)c1OCC(=O)N1CCOCC1 | inconclusive: 14.1 µM [inhibitor, partial curve, poor fit]
Cc1ccc(S(=O)(=O)N2CCCCC2)cc1NC(=O)CCc1nc2ccccc2c(=O)[nH]1 | inconclusive: 39.8 µM [inhibitor, partial curve, poor fit]
CCCCC1=CC2=CC(=O)C(C)(OC(=O)CCc3ccccc3)C(=O)C2=CO1 (stereo not drawn) | inconclusive: 79.4 µM [inhibitor, partial curve, poor fit]
Cc1cccc(NC(=O)Cn2cc(C(=O)c3ccco3)c3ccccc32)c1C | inconclusive: 44.7 µM [inhibitor, partial curve]
CCOc1ccccc1NC(=O)COc1coc(CN2CCc3ccccc32)cc1=O | inconclusive: 56.2 µM [inhibitor, partial curve]
COc1ccc(CNc2ncnc3c2nnn3C)cc1 | inactive
CCN1CCN(S(=O)(=O)c2ccc(Cl)c(C(=O)NC(C)(C)C)c2)CC1 | inconclusive: 89.1 µM [inhibitor, partial curve, poor fit]
